Reference: patent US20040018561A1, “Peptide compounds and their use as protease substrates” (priority 2002, published 2004)
The name of at least one read-out is uncertain. *1 amine or outer side, *2 acyl side, *3 side chain or, on linkers, in order; H or OH if unused. Where a SMILES comes first, the peptide text is derived from it. [ ]: non-standard residue; d: D form. The star is where a group is joined. Dnp = O=[N+]([O-])c1ccc(*)c([N+](=O)[O-])c1; X2 = O=C([C@H](CCCCOCc1ccccc1)N[*:1])[*:2]; X1 = O=C([C@H](CCCCOc1ccccc1)N[*:1])[*:2]; Mca = COc1ccc2c(CC(=O)*)cc(=O)oc2c1; Dap = NC[C@H](N)C(=O)O

By UniProt entry, the sequences of proteins in these tests, tags left out. Residues count along the entry.
UniProt P08254, 100-477: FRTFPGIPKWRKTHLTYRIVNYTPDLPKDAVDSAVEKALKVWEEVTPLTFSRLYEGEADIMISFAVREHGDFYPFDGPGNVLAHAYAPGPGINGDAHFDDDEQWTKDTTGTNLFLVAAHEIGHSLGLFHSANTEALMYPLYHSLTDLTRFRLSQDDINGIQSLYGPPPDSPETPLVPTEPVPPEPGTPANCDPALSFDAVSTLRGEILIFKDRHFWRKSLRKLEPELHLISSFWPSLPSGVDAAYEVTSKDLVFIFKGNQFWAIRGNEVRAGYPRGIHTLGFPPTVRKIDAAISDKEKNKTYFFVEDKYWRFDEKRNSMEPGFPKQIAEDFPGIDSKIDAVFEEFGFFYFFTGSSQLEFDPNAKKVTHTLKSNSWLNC

Columns and labels:
Format in all cases: biochemical
[1] = biological target: T1, MMP-7 (Homo sapiens, UniProt P09237); experiment: Km and kcat/Km of substrates with MMP-7; details: substrate cleavage by MMP-7
T1 sequence (P09237 95-267): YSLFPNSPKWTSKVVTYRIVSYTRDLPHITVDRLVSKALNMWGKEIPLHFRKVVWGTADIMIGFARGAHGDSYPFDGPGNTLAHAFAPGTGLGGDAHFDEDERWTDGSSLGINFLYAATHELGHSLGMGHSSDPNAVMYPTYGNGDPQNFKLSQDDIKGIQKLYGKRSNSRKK

[2] = biological target: T2, MMP-1 (Homo sapiens, UniProt P03956); experiment: Km and kcat/Km of substrates with MMP-1; details: substrate cleavage by MMP-1
T2 sequence (P03956 100-469): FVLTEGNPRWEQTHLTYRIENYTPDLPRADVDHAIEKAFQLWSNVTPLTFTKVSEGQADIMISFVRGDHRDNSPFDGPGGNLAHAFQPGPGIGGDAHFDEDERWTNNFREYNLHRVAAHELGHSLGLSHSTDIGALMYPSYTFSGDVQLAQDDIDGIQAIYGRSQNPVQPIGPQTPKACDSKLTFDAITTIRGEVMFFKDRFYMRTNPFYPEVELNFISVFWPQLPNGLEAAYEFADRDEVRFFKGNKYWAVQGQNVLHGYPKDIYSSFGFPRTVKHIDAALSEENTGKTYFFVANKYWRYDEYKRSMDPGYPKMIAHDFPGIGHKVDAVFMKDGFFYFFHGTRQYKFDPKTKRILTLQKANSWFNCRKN

[3] = biological target: MMP-3 (Homo sapiens, UniProt P08254); experiment: Km and kcat/Km of substrates with MMP-3; details: substrate cleavage by MMP-3

Row | Compound | kcat/Km MMP-7 [1] [M^−1s^−1×10^4] | kcat/Km MMP-1 [2] [M^−1s^−1×10^4] | kcat/Km MMP-3 [3] [M^−1s^−1×10^4]
1 | COc1ccc2c(CC(=O)N[C@@H](CCCNC(=N)N)C(=O)N3CCC[C@H]3C(=O)N[C@@H](CC(C)C)C(=O)NCC(=O)N[C@@H](CCCCOCc3ccccc3)C(=O)N[C@@H](CNc3ccc([N+](=O)[O-])cc3[N+](=O)[O-])C(=O)N[C@@H](C)C(=O)N[C@@H](CCCNC(=N)N)C(=O)N[C@@H](CCC(=O)O)C(=O)N[C@@H](CCCNC(=N)N)C(N)=O)cc(=O)oc2c1 [Compound 20, N-2-[(7-methoxy-2-oxo-2H-chromen-4-yl)acetyl]-L-arginyl-L-prolyl-L-leucylglycyl-6-(benzyloxy)-L-norleucyl-3-[(2,4-dinitrophenyl)amino]-L-alanyl-L-alanyl-L-arginyl-L-alpha-glutamyl-L-argininamide] (Mca-RPLG[X2][Dap](Dnp)ARER-NH2) | 0 | 0 | 
2 | COc1ccc2c(CC(=O)N[C@H](CCCNC(=N)N)C(=O)N3CCC[C@H]3C(=O)N[C@@H](CC(C)C)C(=O)NCC(=O)N[C@@H](CCCCOc3ccccc3)C(=O)N[C@@H](CNc3ccc([N+](=O)[O-])cc3[N+](=O)[O-])C(=O)N[C@@H](C)C(=O)N[C@H](CCCNC(=N)N)C(=O)N[C@H](CCC(=O)O)C(=O)N[C@H](CCCNC(=N)N)C(N)=O)cc(=O)oc2c1 [Compound 25, N-2-[(7-methoxy-2-oxo-2H-chromen-4-yl)acetyl]-D-arginyl-L-prolyl-L-leucylglycyl-6-phenoxy-L-norleucyl-3-[(2,4-dinitrophenyl)amino]-L-alanyl-L-alanyl-D-arginyl-D-alpha-glutamyl-D-argininamide] (Mca-[dR]PLG[X1][Dap](Dnp)A[dR][dE][dR]-NH2) | 0 | 0 | 0
